Record: PubChem BioAssay AID504791 (Drosophila RNAi Screening Center, 2011)
The deposit covers about 23,000 reagents; this is an unselected part of those that have a named target and a result. Over the whole deposit, 199 (0.86%) are marked active. 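Plate-scaled ratios behind the calls are not deposited; printed light signals are raw; many rows marked increased or decreased are still called inactive.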 Names joined by + are all predicted targets of the reagent. The record does not give: the direction of the score.

Purpose: 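Genes of the fly required for silencing by miRNA, siRNA or endo-siRNA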 (primary screen)
Cells: Drosophila S2-derived reporter cells
Reagent: long dsRNA against Drosophila genes, about 150-250 ng dsRNA per well (siRNA assay); about 80-120 ng (miRNA assay)
Time to read-out: about 5 days (siRNA assay); about 4 days (miRNA assay)
Conditions: copper sulfate induction of reporters: 25 µM (siRNA assay); 200 mM stated (miRNA assay), 1-2 days before reading
Measurement: 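Dual luciferase assay: Renilla to firefly signal ratio in each well, scaled to the mean ratio of its plate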
Units: stable assay Renilla, run 1 in luminescence; stable assay firefly, run 1 in luminescence
Hit rule: 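First-pass picks had plate-scaled ratios over 1.5 for the siRNA assay, over 1.6 for the miRNA assay, or under 0.6; two distinct dsRNAs had to score alike on retest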

Iml1 [DRSC08249]
- stable assay Renilla, run 1: 12556
- stable assay firefly, run 1: 3.89e5
- Outcome: inactive

CG13063 [DRSC09946]
- stable assay Renilla, run 1: 7238
- stable assay firefly, run 1: 4.42e5
- Outcome: inactive

CG3457 [DRSC18509]
- stable assay Renilla, run 1: 8916
- stable assay firefly, run 1: 6.12e5
- Outcome: inactive

CR46300 [DRSC12467]
- stable assay Renilla, run 1: 6010
- stable assay firefly, run 1: 5.40e5
- Outcome: inactive

CR42545 [DRSC03709]
- stable assay Renilla, run 1: 7387
- stable assay firefly, run 1: 4.59e5
- Outcome: inactive

CG1671 [DRSC06617]
- stable assay Renilla, run 1: 8429
- stable assay firefly, run 1: 5.09e5
- Outcome: inactive

Cyp12d1-d + Cyp12d1-p [DRSC21507]
- stable assay Renilla, run 1: 9985
- stable assay firefly, run 1: 5.90e5
- Outcome: inactive

Graf [DRSC20131]
- stable assay Renilla, run 1: 6798
- stable assay firefly, run 1: 2.93e5
- Outcome: inactive

stac [DRSC13693]
- stable assay Renilla, run 1: 4263
- stable assay firefly, run 1: 3.13e5
- Outcome: inactive

stac [DRSC14392]
- stable assay Renilla, run 1: 8308
- stable assay firefly, run 1: 4.61e5
- Outcome: inactive

stac [DRSC22197]
- stable assay Renilla, run 1: 8931
- stable assay firefly, run 1: 5.63e5
- Outcome: inactive

tsr [DRSC04718]
- stable assay Renilla, run 1: 5343
- stable assay firefly, run 1: 3.25e5
- Outcome: inactive

CG15461 [DRSC20532]
- stable assay Renilla, run 1: 6150
- stable assay firefly, run 1: 4.19e5
- Outcome: inactive

CG13717 (retired record) [DRSC08116]
- stable assay Renilla, run 1: 2568
- stable assay firefly, run 1: 3.55e5
- Outcome: inactive

CG13717 (retired record) [DRSC08324]
- stable assay Renilla, run 1: 5611
- stable assay firefly, run 1: 4.01e5
- Outcome: inactive

CG13717 (retired record) [DRSC08326]
- stable assay Renilla, run 1: 5143
- stable assay firefly, run 1: 2.33e5
- Outcome: inactive

CG13717 (retired record) [DRSC21337]
- stable assay Renilla, run 1: 9941
- stable assay firefly, run 1: 4.72e5
- Outcome: inactive

CG13717 (retired record) [DRSC23087]
- stable assay Renilla, run 1: 7211
- stable assay firefly, run 1: 4.22e5
- Outcome: inactive

Ugt302E1 [DRSC15635]
- stable assay Renilla, run 1: 6458
- stable assay firefly, run 1: 3.79e5
- Outcome: inactive

rib [DRSC07021]
- stable assay Renilla, run 1: 8751
- stable assay firefly, run 1: 3.14e5
- Outcome: inactive

Septin5 [DRSC06843]
- stable assay Renilla, run 1: 7563
- stable assay firefly, run 1: 3.57e5
- Outcome: inactive

X11Lbeta [DRSC18156]
- stable assay Renilla, run 1: 5198
- stable assay firefly, run 1: 4.12e5
- Outcome: inactive

X11Lbeta [DRSC18158]
- stable assay Renilla, run 1: 5087
- stable assay firefly, run 1: 4.12e5
- Outcome: inactive

Lcch3 [DRSC20257]
- stable assay Renilla, run 1: 7848
- stable assay firefly, run 1: 6.08e5
- Outcome: inactive

Lcch3 [DRSC22175]
- stable assay Renilla, run 1: 8302
- stable assay firefly, run 1: 4.43e5
- Outcome: inactive

Mec2 [DRSC20054]
- stable assay Renilla, run 1: 7124
- stable assay firefly, run 1: 4.23e5
- Outcome: inactive

Ak1 [DRSC10248]
- stable assay Renilla, run 1: 6099
- stable assay firefly, run 1: 4.75e5
- Outcome: inactive

Gdap2 [DRSC06789]
- stable assay Renilla, run 1: 7044
- stable assay firefly, run 1: 4.05e5
- Outcome: inactive

Gdap2 [DRSC06790]
- stable assay Renilla, run 1: 7018
- stable assay firefly, run 1: 3.52e5
- Outcome: inactive

CG16782 [DRSC18118]
- stable assay Renilla, run 1: 6516
- stable assay firefly, run 1: 4.32e5
- Outcome: inactive

CG13168 [DRSC06295]
- stable assay Renilla, run 1: 5655
- stable assay firefly, run 1: 3.02e5
- Outcome: inactive

Mat89Ba [DRSC14540]
- stable assay Renilla, run 1: 7235
- stable assay firefly, run 1: 3.18e5
- Outcome: inactive

CG4984 + CG4975 [DRSC06907]
- stable assay Renilla, run 1: 5459
- stable assay firefly, run 1: 2.94e5
- Outcome: inactive

CG4984 + CG4975 [DRSC06908]
- stable assay Renilla, run 1: 6999
- stable assay firefly, run 1: 3.21e5
- Outcome: inactive

Skp2 + CG1103 [DRSC12160]
- stable assay Renilla, run 1: 9683
- stable assay firefly, run 1: 4.38e5
- Outcome: inactive

Skp2 + CG1103 [DRSC22356]
- stable assay Renilla, run 1: 9137
- stable assay firefly, run 1: 5.55e5
- Outcome: inactive

Ordered by “stable assay firefly, run 1” (low to high): some entries from above.
Gdap2 [DRSC06789]
- stable assay Renilla, run 1: 7044
- stable assay firefly, run 1: 4.05e5
- Outcome: inactive

Mec2 [DRSC20054]
- stable assay Renilla, run 1: 7124
- stable assay firefly, run 1: 4.23e5
- Outcome: inactive

Ak1 [DRSC10248]
- stable assay Renilla, run 1: 6099
- stable assay firefly, run 1: 4.75e5
- Outcome: inactive
